Results from patent US20070219348A1, “Mutations in the mineralocorticoid receptor ligand binding domain polypeptide that permit structural determination of low affinity ligand complexes and screening methods employing same” (priority 2006, published 2007).
At least one compound was matched to its structure with a doubt left.

Target: Reporter Alone
Assay: Ligand binding affinities on MR constructs (Table 1), Reporter Alone
Conditions: cells printed in nM, read-out: IC50 binding affinity, Reporter Alone
Description: As used herein, the terms “weakly binding ligand” and “weak ligand” are used interchangeably and mean a ligand that binds a receptor with low affinity. The binding strength of a ligand to a receptor can be experimentally measured using any of several procedures, as is generally known in the art. In some embodiments of the presently disclosed subject matter, ligand binding is measured using a competitive binding assay in which a ligand of interest competes with a labeled ligand for binding to a receptor. […] This quantitative measurement can be expressed as an IC50 value. Therefore, the greater the IC50 value of a ligand, the lower the binding affinity the ligand has for the receptor.
Cortisol has a hydroxyl attached to C11, where cortisone has a ketone.

## C[C@@H]1C[C@H]2[C@@H]3CCC4=CC(=O)C=C[C@]4(C)[C@@]3(F)[C@@H](O)C[C@]2(C)[C@@]1(O)C(=O)CO [Dexamethasone, dexamethasone]
  IC50: 16 nM
